# Publication PMC5996148
# This is one part of the list.
# Legend:
# Test in all cases: protein microarray (ProtoArray v5.0), streptavidin-Alexa Fluor 647
# Conditions in all cases: 3'-biotin; 20 mM Tris (pH 7.5), 5 mM MgCl2, 100 mM KCl, 0.1% Tween-20, A/T-rich and random oligonucleotide blockers; temperature not stated; high values mean tight binding
# [1] = system: GYPE (human)
# [2] = system: GYS1 (human)
# [3] = system: GZMM (human)
# [4] = system: Galectin-3 (human)
# [5] = system: Gamma-soluble NSF attachment protein (human)
# [6] = system: Ganglioside GM2 activator (human)
# [7] = system: Geranylgeranyl pyrophosphate synthetase (human)
# [8] = system: Glucose-6-phosphate 1-dehydrogenase (human)
# [9] = system: Glucose-6-phosphate translocase (human)
# [10] = system: Glucose-fructose oxidoreductase domain-containing protein 1 (human)
sequence,measurement,setting,value
GGGAGGCTGAGGCAGG [G4-1 biotinylated (PQS2)],binding signal,[1],-0.299 z-score
same,binding signal,[2],-0.324 z-score
same,binding signal,[3],-0.265 z-score
same,binding signal,[4],-0.349 z-score
same,binding signal,[5],-0.333 z-score
same,binding signal,[6],-0.346 z-score
same,binding signal,[7],-0.347 z-score
same,binding signal,[8],-0.323 z-score
same,binding signal,[9],-0.353 z-score
same,binding signal,[10],-0.366 z-score
